The target of assay [1] is T1, Xenopus laevis ZC3HC1 (zinc finger C3HC-type protein 1), soluble, dephosphorylated, in NE-assembly-competent egg extract (X. laevis (endogenous in egg extract)) (UniProt Q6P7H4).
T1 sequence: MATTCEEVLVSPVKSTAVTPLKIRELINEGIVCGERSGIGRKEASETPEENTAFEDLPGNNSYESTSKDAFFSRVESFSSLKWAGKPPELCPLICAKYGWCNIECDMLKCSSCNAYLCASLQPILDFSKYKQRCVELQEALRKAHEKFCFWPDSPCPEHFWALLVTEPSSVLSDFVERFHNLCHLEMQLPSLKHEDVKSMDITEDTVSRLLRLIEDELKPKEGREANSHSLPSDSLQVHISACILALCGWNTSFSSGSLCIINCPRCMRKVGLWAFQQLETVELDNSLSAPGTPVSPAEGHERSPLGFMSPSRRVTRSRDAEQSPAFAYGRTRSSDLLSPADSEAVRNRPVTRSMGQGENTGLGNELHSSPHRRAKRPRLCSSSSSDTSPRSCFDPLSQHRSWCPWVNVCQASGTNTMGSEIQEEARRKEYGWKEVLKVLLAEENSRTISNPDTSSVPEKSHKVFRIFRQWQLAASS
Description: co-IP; native proteins; antibodies covalently bound to Protein A-coupled magnetic Dynabeads; 250,000 x g supernatants of X. laevis egg extracts competent for post-mitotic nuclear assembly, diluted in four volumes IP buffer (41.5 mM KCl, 8.5 mM NaCl, 5 mM MgCl2, 2.5 mM EGTA, 10% sucrose, 20 mM HEPES pH 7.25), 30 min at RT; washes with 0.02% Tween-20; elution with 100 mM glycine pH 2.5; immunoblot. On the technique in general: A western blot detects proteins with antibodies after separation by electrophoresis.

Assay [2] addresses Xenopus laevis NUP62 (X. laevis (endogenous in egg extract)). The description is as above.

Results are given in words; binding and its absence hold for the method and conditions named. In cells and extracts the contact can be indirect.

On to “Xenopus laevis NUP62 (X. laevis (endogenous in egg extract))”, for which the binding result in assay [1] is “no binding”.

B1: Xenopus laevis ZC3HC1 (zinc finger C3HC-type protein 1), soluble, dephosphorylated, in NE-assembly-competent egg extract (protein, UniProt Q6P7H4 1-477)
chain: MATTCEEVLVSPVKSTAVTPLKIRELINEGIVCGERSGIGRKEASETPEENTAFEDLPGNNSYESTSKDAFFSRVESFSSLKWAGKPPELCPLICAKYGWCNIECDMLKCSSCNAYLCASLQPILDFSKYKQRCVELQEALRKAHEKFCFWPDSPCPEHFWALLVTEPSSVLSDFVERFHNLCHLEMQLPSLKHEDVKSMDITEDTVSRLLRLIEDELKPKEGREANSHSLPSDSLQVHISACILALCGWNTSFSSGSLCIINCPRCMRKVGLWAFQQLETVELDNSLSAPGTPVSPAEGHERSPLGFMSPSRRVTRSRDAEQSPAFAYGRTRSSDLLSPADSEAVRNRPVTRSMGQGENTGLGNELHSSPHRRAKRPRLCSSSSSDTSPRSCFDPLSQHRSWCPWVNVCQASGTNTMGSEIQEEARRKEYGWKEVLKVLLAEENSRTISNPDTSSVPEKSHKVFRIFRQWQLAASS
As for B1, in assay [2], the binding result is recorded as “no binding”.
